This is a selection; strong and weak results do not stand in their true shares. The calls were merged from several studies; some rest on single wells. This is one part of the list.
Assays:
Conditions in all cases: stereoisomer not certain
OR1L1 = tested on: T1, OR1L1
T1 sequence (whole entry): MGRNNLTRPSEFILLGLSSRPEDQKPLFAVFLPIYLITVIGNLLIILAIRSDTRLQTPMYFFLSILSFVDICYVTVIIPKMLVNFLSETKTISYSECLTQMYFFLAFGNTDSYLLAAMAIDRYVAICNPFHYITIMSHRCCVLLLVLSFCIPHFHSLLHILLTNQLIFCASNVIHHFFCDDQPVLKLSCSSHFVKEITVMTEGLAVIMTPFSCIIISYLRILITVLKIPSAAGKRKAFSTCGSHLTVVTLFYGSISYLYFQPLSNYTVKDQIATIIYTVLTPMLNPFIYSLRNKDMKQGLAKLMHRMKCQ
Method in brief: (§1)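 Each entry records the cell line, G-protein, co-transfected protein and tags used. Methods varied with the source, often transient luciferase assays in mammalian cell lines. A receptor–molecule pair is called responsive (active) if the original authors judged its signal statistically different from baseline and non-responsive (inactive) otherwise.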

OR1L3 (Homo sapiens) = biological target: T2, OR1L3 (Homo sapiens) (UniProt Q8NH93)
T2 sequence (whole entry): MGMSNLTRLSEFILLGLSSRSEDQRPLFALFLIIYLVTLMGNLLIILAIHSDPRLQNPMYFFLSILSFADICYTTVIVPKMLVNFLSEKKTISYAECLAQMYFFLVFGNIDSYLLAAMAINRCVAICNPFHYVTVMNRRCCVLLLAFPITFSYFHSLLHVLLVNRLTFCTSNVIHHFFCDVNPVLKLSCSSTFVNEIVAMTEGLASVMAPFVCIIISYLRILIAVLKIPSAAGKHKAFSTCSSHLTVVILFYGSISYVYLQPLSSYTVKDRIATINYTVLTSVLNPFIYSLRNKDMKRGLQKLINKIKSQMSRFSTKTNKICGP
Method in brief: as §1

OR1L4 = tested on: T3, OR1L4
T3 sequence (whole entry): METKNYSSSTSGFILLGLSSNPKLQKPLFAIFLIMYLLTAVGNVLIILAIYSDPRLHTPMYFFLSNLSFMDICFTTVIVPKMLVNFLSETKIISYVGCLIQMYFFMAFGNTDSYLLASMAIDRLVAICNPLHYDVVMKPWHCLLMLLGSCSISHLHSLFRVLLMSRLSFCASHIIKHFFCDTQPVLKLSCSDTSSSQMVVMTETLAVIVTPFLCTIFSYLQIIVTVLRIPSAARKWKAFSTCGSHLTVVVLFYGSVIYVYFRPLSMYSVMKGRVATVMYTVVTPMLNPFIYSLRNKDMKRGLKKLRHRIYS
Method in brief: as §1

OR1L6 = tested on: T4, OR1L6
T4 sequence (whole entry): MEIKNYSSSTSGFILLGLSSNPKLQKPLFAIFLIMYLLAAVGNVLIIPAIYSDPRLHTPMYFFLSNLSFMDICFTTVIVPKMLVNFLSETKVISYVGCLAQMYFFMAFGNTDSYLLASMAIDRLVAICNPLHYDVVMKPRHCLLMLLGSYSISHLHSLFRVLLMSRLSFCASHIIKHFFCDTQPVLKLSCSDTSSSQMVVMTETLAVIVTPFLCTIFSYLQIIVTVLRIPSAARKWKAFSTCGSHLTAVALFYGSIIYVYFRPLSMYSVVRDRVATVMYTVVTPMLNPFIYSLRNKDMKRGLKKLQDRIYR
Method in brief: as §1

OR1L8 (Homo sapiens) = biological target: T5, OR1L8 (Homo sapiens) (UniProt Q8NGR8)
T5 sequence (whole entry): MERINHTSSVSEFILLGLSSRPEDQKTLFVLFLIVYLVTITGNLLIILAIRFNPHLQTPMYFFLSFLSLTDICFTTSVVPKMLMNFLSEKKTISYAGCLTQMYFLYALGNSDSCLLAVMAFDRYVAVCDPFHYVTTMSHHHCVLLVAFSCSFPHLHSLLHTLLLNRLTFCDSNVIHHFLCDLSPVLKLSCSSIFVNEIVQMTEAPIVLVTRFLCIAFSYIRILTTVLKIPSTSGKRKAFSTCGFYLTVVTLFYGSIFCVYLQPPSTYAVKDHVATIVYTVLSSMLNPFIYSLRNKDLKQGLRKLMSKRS
Method in brief: as §1

OR1M1 = tested on: T6, OR1M1
T6 sequence (whole entry): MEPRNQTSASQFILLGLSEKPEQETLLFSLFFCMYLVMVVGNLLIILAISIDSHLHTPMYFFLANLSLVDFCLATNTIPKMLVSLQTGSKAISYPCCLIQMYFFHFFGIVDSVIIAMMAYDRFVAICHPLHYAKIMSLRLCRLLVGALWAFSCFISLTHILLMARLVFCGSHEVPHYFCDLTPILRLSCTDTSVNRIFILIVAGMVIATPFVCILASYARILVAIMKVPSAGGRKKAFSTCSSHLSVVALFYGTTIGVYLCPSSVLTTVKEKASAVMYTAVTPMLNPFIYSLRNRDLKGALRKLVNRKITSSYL
Method in brief: as §1

OR1N1 (Homo sapiens) = biological target: T7, OR1N1 (Homo sapiens) (UniProt Q8NGS0)
T7 sequence (whole entry): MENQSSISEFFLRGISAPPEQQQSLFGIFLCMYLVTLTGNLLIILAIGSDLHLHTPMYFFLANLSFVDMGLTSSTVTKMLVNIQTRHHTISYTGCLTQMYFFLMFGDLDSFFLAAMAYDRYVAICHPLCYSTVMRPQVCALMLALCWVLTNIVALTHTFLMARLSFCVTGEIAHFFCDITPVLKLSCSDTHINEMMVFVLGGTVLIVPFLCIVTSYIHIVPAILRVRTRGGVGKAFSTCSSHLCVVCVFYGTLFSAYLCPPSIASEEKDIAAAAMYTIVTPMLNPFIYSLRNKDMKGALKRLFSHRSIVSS
Method in brief: as §1

OR1N2 (Homo sapiens) = biological target: T8, OR1N2 (Homo sapiens) (UniProt Q8NGR9)
T8 sequence (whole entry): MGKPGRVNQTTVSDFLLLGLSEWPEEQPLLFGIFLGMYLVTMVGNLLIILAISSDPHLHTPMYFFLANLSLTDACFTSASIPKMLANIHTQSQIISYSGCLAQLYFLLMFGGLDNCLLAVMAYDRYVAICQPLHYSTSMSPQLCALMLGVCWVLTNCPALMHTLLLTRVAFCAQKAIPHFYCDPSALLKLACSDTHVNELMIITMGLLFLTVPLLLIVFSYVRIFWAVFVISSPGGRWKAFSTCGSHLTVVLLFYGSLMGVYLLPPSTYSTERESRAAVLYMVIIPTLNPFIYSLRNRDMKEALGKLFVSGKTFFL
Method in brief: as §1

OR1N2 = tested on: T9, OR1N2
T9 sequence (whole entry): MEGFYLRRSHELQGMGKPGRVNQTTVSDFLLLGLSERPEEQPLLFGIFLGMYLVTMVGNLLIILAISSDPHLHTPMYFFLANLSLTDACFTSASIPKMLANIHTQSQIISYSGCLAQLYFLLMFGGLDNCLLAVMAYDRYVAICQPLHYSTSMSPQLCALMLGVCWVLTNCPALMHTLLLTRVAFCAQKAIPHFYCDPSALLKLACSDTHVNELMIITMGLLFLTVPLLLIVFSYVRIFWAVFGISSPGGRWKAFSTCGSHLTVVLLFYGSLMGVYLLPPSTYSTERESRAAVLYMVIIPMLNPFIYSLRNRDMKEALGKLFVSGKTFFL
Method in brief: as §1

OR1Q1 = tested on: T10, OR1Q1
T10 sequence (whole entry): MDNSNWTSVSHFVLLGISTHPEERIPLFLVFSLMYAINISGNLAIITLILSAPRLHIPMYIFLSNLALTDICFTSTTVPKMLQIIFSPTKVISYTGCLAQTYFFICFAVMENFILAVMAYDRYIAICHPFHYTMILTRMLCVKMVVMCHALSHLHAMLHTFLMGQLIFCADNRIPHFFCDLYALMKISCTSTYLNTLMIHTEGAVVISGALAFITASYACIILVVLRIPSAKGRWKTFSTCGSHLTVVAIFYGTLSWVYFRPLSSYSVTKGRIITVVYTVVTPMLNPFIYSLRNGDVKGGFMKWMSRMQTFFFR
Method in brief: as §1

OR1S1 = tested on: T11, OR1S1
T11 sequence (whole entry): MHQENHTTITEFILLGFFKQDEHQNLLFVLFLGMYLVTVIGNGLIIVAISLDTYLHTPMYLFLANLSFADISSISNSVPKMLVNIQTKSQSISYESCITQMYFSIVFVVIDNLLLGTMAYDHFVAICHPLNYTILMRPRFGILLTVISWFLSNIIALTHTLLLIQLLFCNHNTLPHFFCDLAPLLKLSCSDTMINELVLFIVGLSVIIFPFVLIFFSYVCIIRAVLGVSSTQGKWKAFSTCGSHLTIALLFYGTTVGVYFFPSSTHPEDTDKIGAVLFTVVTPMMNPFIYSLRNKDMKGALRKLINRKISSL
Method in brief: as §1

OR1S2 = tested on: T12, OR1S2
T12 sequence (whole entry): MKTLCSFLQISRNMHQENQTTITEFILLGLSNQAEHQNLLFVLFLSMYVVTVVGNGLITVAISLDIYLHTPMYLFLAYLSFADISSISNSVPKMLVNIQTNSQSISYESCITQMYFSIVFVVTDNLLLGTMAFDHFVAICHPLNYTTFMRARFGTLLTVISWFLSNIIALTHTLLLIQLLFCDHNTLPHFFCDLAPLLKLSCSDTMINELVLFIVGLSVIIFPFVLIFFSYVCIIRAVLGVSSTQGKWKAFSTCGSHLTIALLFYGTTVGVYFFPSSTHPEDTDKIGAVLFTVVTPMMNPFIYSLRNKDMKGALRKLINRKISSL
Method in brief: as §1

OR2A12 (Homo sapiens) = biological target: T13, OR2A12 (Homo sapiens) (UniProt Q8NGT7)
T13 sequence (whole entry): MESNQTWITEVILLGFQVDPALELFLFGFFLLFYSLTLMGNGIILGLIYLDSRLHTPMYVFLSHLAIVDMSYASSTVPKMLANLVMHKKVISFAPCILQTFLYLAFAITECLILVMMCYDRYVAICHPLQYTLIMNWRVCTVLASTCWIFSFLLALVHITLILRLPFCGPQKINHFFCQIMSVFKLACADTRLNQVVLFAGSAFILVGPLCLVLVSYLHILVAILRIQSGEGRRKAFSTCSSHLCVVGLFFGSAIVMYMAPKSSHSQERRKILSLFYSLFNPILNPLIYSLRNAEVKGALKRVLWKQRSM
Method in brief: as §1

OR2A1 (Homo sapiens) = biological target: T14, OR2A1 (Homo sapiens) (UniProt Q8NGT9)
T14 sequence (whole entry): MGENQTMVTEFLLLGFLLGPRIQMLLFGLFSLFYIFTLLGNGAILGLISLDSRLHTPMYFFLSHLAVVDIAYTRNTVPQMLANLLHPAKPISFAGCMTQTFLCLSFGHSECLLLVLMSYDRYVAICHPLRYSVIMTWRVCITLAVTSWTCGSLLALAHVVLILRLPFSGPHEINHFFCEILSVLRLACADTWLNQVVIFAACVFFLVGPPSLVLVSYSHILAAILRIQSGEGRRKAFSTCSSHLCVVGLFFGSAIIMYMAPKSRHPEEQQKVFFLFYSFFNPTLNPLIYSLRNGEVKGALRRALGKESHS
Method in brief: as §1

Compound | odorant receptor agonist call (OR1L1) | odorant receptor agonist call (OR1L3 (Homo sapiens)) | odorant receptor agonist call (OR1L4) | odorant receptor agonist call (OR1L6) | odorant receptor agonist call (OR1L8 (Homo sapiens)) | odorant receptor agonist call (OR1M1) | odorant receptor agonist call (OR1N1 (Homo sapiens)) | odorant receptor agonist call (OR1N2 (Homo sapiens)) | odorant receptor agonist call (OR1N2) | odorant receptor agonist call (OR1Q1) | odorant receptor agonist call (OR1S1) | odorant receptor agonist call (OR1S2) | odorant receptor agonist call (OR2A12 (Homo sapiens)) | odorant receptor agonist call (OR2A1 (Homo sapiens))
CC12CCC(C1)C(C)(C)C2=O (stereo unspecified) | inactive | inactive | inactive | inactive | inactive | inactive | inactive | inactive | inactive | inactive | inactive | inactive | inactive | 
CC12CCC(CC1)C(C)(C)O2 | inactive | inactive | inactive | inactive | inactive | inactive | inactive | inactive | inactive | inactive | inactive | inactive | inactive | 
COC(=O)c1ccccc1 | inactive | inactive | inactive |  | inactive | inactive | inactive | inactive | inactive | inactive |  | inactive | active | 
C=CCc1ccc(OC)c(OC)c1 | inactive | inactive | inactive | inactive | inactive | inactive | inactive | inactive | inactive | inactive | inactive | inactive | inactive | 
COc1cc(C=O)ccc1O | inactive |  | inactive | inactive | inactive | inactive | inactive | inactive | inactive | inactive | active | inactive | inactive | inactive
CC=Cc1ccc(O)c(OC)c1 | inactive | inactive | inactive | inactive | inactive | inactive | inactive | active | inactive | inactive | active | active | inactive | 

Reference: the M2OR odorant receptor database
